These are yes or no findings as the source states them, for the method shown. Some results given as binding are weak or reduced against the parent protein; the word gives no strength.
Biological target: T1, MBIO-4039 large fragment, SEQ ID NO:2733
T1 sequence: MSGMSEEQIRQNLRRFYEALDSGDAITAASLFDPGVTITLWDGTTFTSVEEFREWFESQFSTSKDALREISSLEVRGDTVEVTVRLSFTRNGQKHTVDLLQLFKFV
Test: split-luciferase complementation of MBIO-4039 fragments

- binding: binds
B1: MBIO-4039 small fragment, SEQ ID NO:2734 (peptide)
peptide: MSGGNRVVAVRVYVNPT
